# The full ranking holds about 33,000 sequences; the median of “E-score (-0.5 to 0.5)” is about -0.016, and the highest 2% start at about 0.3. This is one part of the list.
# Molecular target: T1, Yer184c (UniProt P39961)
# T1 sequence: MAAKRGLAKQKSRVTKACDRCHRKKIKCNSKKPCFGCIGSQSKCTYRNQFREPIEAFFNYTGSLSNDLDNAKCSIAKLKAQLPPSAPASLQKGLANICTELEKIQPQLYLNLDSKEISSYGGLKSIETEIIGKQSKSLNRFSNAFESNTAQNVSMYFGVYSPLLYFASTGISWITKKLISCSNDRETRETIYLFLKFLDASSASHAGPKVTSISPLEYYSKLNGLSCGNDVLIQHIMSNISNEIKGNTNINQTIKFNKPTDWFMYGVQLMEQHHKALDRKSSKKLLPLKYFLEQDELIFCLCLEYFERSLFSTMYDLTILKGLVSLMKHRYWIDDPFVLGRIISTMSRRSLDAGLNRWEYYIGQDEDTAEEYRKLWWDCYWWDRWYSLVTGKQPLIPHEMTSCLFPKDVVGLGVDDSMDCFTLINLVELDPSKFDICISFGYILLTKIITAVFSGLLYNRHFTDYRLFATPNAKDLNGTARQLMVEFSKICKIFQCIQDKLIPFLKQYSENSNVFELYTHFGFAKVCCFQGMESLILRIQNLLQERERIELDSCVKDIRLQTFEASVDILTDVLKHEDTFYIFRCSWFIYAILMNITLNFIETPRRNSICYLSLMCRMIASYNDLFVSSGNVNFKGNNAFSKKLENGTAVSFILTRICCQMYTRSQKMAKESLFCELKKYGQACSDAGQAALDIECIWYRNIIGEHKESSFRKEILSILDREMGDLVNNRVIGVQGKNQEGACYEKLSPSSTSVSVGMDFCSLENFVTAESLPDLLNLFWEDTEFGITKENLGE
# Assay: PBM E-score (8-mer binding enrichment) (E-score (-0.5 to 0.5)); higher = stronger / more preferred TF binding
# Conditions: protein concentration: 100 nM; construct: GST-full length
# Procedure, shortened: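 Masliner-normalised scans of fluorescent anti-GST signal were the basis for scoring. That signal came from GST-tagged yeast transcription factors applied at about 100-200 nM to double-stranded universal all-10-mer Agilent arrays on fresh or once-stripped slides. Each ungapped eight-base word, pooled with its reverse complement, received an E-score from the Universal PBM Analysis Suite.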
row,Sequence,PBM E-score
1,AATACGAT,0.0429
2,CCGGATCA,0.328
3,GTTGGCGA,0.0969
4,AAGCCTGA,-0.123
5,GTACTAGA,0.0879
6,CGCGGTCA,-0.0723
7,ACTTACAG,-0.0371
8,GAACCTAC,0.0438
9,ACATCGGG,-0.141
10,ACTTAGTA,0.241
11,ATACAGAG,-0.122
12,GCCGCAAC,0.177
13,AGTACGTG,-0.245
14,GGTGCCCA,-0.189
15,ATCAACGC,0.044
16,GCTGACAA,0.168
17,AAAATCCC,-0.0891
18,CTTGCAAC,-0.0155
19,ACTTGTGA,-0.0537
20,AAGGTATG,-0.147
21,ATTCGAGA,-0.0838
22,GGTAGTAC,-0.0454
23,GACATCAA,0.188
24,CTCCCGCA,0.109
25,ACCCACCC,-0.137

row,Sequence,PBM E-score
1,TGAAAACA,0.206
2,AGAAAGCA,0.139
3,AACACAAG,-0.125
4,ACTCCGTC,0.019
5,GCCCGAAC,0.0908
6,CCTCAACC,-0.118
7,AGCTAGCC,-0.0869
8,CTCTCGGC,0.238
9,AAGTGGGA,0.034
10,GGAAGGAA,0.0699
11,AGTCCCTC,-0.142
12,ACACTTAT,-0.0747
13,AATCCTCT,-0.26
14,ACCGTACT,0.0285
15,CACTTCAG,-0.00724
16,ACCGTTGA,0.0134
17,CTGACCCC,-0.251
18,CGGCTTGC,0.296
19,AACACAGC,0.196
20,CCACTCCC,-0.173
21,ATCTATAC,0.0991
22,CATATCGA,-0.0748
23,CAGGCGGC,0.0205
24,GGTTGGGA,-0.163
25,CTCAACAC,0.108

row,Sequence,PBM E-score
1,TGCCTGAA,-0.142
2,AATCTCCG,0.3
3,AGGAATAG,-0.00383
4,CTCGGCCC,0.195
5,CTCCGATC,0.0345
6,ACTCACAG,0.0258
7,CATTTCAA,0.0826
8,GAGGCATA,0.0709
9,GCTGGAAA,0.133
10,AAAACTTC,0.182
11,GGGATGAA,-0.0783
12,AGTGCTTC,-0.0265
13,ACTACTGA,0.00278
14,GAAGGTGA,0.0602
15,AGCATTAC,-0.0712
16,ATAAACCA,0.0403
17,ATCGCCTC,-0.0449
18,ACTGCCGG,0.282
19,AAAGTATC,0.259
20,AGTAACAT,0.0114
21,ATGGACGC,-0.0943
22,AGACGTAG,-0.201
23,AGGGCACA,-0.0182
24,GATCCTCA,0.0807
25,AGCATGAT,-0.014

# An excerpt of these results, with tabs:
row	Sequence	PBM E-score
15	AGCATTAC	-0.0712
16	ATAAACCA	0.0403
17	ATCGCCTC	-0.0449
18	ACTGCCGG	0.282
19	AAAGTATC	0.259

# Remaining list, next part

row,Sequence,PBM E-score
1,CAGTCTCA,-0.0421
2,ATGCCAGC,-0.25
3,GGGATCCC,0.129
4,AGCTGACC,-0.0787
5,CGCGAACG,0.139
6,CGGCCTCC,0.00767
7,GAATAGGC,0.0411
8,AAACGATC,0.161
9,ACCTACGC,-0.021
10,AAGGCCGA,0.338
11,TCTCCGAA,0.325
12,AACATACC,0.0156
13,AGATTGAA,0.115
14,ACAGGATA,0.0342
15,TCATACCA,0.0165
16,GCGGTAAA,0.281
17,CCCGCCCG,0.279
18,ACCTCCCC,-0.233
19,ATACCTCC,-0.249
20,ACGCTCCA,-0.0667
21,GCGACAAA,-0.00165
22,ACACTGAA,0.239
23,ATCTCAAA,0.117
24,GAACTGCA,0.0542
25,GATATCAA,0.176

row,Sequence,PBM E-score
1,CAAGACTA,-0.13
2,CATGGGAG,-0.126
3,TGTGGCAA,0.119
4,GACTCCAA,-0.214
5,CGCGGTAG,0.124
6,GCTACAGA,-0.185
7,CCTGACCA,-0.0185
8,CAGACTTA,-0.16
9,GCTCGTTA,-0.0877
10,ATATTAAC,0.216
11,ATAACAAC,0.129
12,CTCTGCCA,-0.311
13,GCATACCC,-0.214
14,CTCGGACA,0.306
15,CCTAACTC,-0.0914
16,CAAACGTC,-0.193
17,GCAATCGC,-0.191
18,ATTGTCTA,0.0903
19,ATCTGATA,-0.13
20,CGTAGGCA,-0.242
21,AATGGCTC,-0.0266
22,CCACAATA,-0.112
23,CTAATTGA,0.0949
24,CCAACATC,-0.048
25,AAACGAGC,0.0412

row,Sequence,PBM E-score
1,ACACGTCT,-0.143
2,ATTCACCA,0.0317
3,CTTGTACA,0.0693
4,CTACACCA,-0.0614
5,AGTTTAAT,0.113
6,TCTTGGCA,0.0543
7,AATCTAAG,-0.064
8,AAACCGCT,-0.0917
9,ACATGGTC,-0.213
10,CCTGAGCC,-0.183
11,AACGACAG,-0.12
12,GACGCCAA,-0.164
13,GAAGAGTA,0.113
14,CCAAGCTA,-0.204
15,AAATAGAG,0.201
16,CGGGAACA,0.313
17,ACGTGTGG,-0.211
18,CTCGGCAC,0.31
19,CGTTCTGC,0.117
20,AGTTGTGG,0.0188
21,ACCAAGCC,-0.113
22,AAGGCTAC,-0.0953
23,CCCAGAAA,0.0141
24,GGGCAAAC,-0.132
25,TAGCCGGA,0.401

# Looked up one by one from above (6):
row,Sequence,PBM E-score
1,ACACGTCT,-0.143
3,CTTGTACA,0.0693
7,AATCTAAG,-0.064
12,GACGCCAA,-0.164
20,AGTTGTGG,0.0188
15,AAATAGAG,0.201

# Continued:

row,Sequence,PBM E-score
1,ACCCTGCC,-0.2
2,GGCTCGCA,-0.123
3,ATTGGAAG,-0.0549
4,GCACAATA,-0.0105
5,GATGCGAA,-0.0276
6,ATGTATCC,-0.0133
7,CCGATTTA,0.249
8,ACCTAAGA,-0.173
9,ACAAATCT,0.148
10,ATACCATG,-0.113
11,AGGAATAA,0.164
12,AGGGGTGG,-0.247
13,GATCAAGC,-0.0257
14,CAAGACTG,-0.055
15,CATCCGTA,0.206
16,CACACGTG,-0.136
17,GAGCACCA,-0.167
18,CCGCCAAG,-0.154
19,CGCCTGGC,-0.154
20,ACAAGACG,-0.143
21,CGAACTGC,0.059
22,CGACTTAA,9e-05
23,AGAAACTG,0.0554
24,CTCCTGCC,-0.137
25,GGCAATAA,0.0381

row,Sequence,PBM E-score
1,TGTCGAAA,-0.0144
2,ATCTAGTG,-0.115
3,AGTAAGGG,-0.0689
4,CAGATTGA,-0.128
5,GGTGGAGA,-0.397
6,CAATAGTG,0.0762
7,CTGGTGAC,-0.268
8,GGAAAGCA,0.128
9,CTCAACTC,0.0921
10,AGAAACTC,0.195
11,CCGGTCAC,0.152
12,CCAACGGA,0.101
13,GCTACTCA,0.00757
14,ATACAGGA,0.0398
15,AACGATCT,0.0753
16,ACCATCGG,-0.0785
17,AGCGCACT,-0.276
18,ACCGCGTA,-0.0653
19,AGGACAGC,-0.199
20,GACACCCC,-0.225
21,CACTAACC,-0.081
22,ACAAGTGA,-0.0538
23,CGAAGTGA,-0.041
24,GCGTACTA,-0.191
25,ATGAGCAA,0.0122

row,Sequence,PBM E-score
1,AAGACGAT,-0.11
2,AGCGCGCC,-0.0668
3,AGGGACCA,-0.177
4,GCTCCGCC,0.126
5,ACTGTTAG,-0.115
6,AGTCTACC,-0.0597
7,ACGTTCGG,0.0284
8,GCACGAGC,-0.168
9,GCATAGAC,-0.0473
10,AGAAACAT,0.159
11,AGGTTGCA,0.013
12,ATCCGAGG,0.182
13,CAGACAAG,-0.0643
14,GATGGTTA,0.0741
15,AAATCGAA,-0.0711
16,CCAGGAGG,-0.24
17,CAGGCCAG,-0.154
18,CAACAGAA,-0.0171
19,ATTAGAAG,0.0148

# Part of the list above, with tabs:
row	Sequence	PBM E-score
15	AAATCGAA	-0.0711
16	CCAGGAGG	-0.24
17	CAGGCCAG	-0.154
18	CAACAGAA	-0.0171
19	ATTAGAAG	0.0148
